{"sequences": {"note": "By UniProt entry, the sequences of proteins in these tests, tags left out.", "UniProt A7MBG4": "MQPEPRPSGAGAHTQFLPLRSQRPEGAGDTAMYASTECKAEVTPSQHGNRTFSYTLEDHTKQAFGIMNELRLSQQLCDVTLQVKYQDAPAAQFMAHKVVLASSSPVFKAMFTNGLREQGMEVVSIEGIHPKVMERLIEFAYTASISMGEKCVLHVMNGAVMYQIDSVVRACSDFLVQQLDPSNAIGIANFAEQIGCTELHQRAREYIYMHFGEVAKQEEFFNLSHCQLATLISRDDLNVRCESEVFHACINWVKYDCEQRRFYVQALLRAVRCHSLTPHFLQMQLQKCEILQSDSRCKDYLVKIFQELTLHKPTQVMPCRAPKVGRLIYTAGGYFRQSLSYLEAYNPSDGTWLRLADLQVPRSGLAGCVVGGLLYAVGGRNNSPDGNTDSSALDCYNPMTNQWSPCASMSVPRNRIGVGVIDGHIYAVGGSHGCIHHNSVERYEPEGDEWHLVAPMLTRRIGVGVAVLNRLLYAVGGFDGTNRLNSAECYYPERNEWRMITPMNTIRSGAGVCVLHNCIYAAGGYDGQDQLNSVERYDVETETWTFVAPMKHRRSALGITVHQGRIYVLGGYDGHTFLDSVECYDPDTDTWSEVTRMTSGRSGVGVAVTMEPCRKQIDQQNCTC"}, "source": "paper PMC7246865", "molecular_target": "P62 (bovine (endogenous in BMECs)) (UniProt Q32PJ9)", "assay": "co-IP; BMEC lysate (IP lysis/wash buffer) incubated with P62 antibody, captured on Pierce protein A/G magnetic beads, low pH elution, Western blot; cells with activation of GPR109A (niacin)", "note": "No constants are given. Whether binding was seen depends on the method and setting. In cells and extracts the contact can be indirect. Some binding calls cover weakened binding; strength is not graded here.", "data": [{"substance": "Keap-1 (from UniProt A7MBG4 1-624)", "values": [{"measurement": "binding", "value": "binds"}]}]}
